The list does not hold the whole screen: it gathers tests that were run many times, whatever their T/C, doses with no T/C, and many T/C values between a quarter and a half above the control. Further doses and runs are listed elsewhere. T/C gives the treated animals as a percentage of the vehicle group. Some entries give survivors of the animals treated and no T/C: the source files T/C as zero there, which appears to mark a toxic dose or a test without result, not a measured value. Some survivor counts are full or nearly so, which does not show that the dose was tolerated: the source hardly ever lists a survival T/C far under the control, and the zero likely stands for such cases as well. Counts of survivors are from the toxicity check (mostly the fifth day) where no day follows; animals may have died later. Schedules are NCI's codes, read here as Q, the interval in days (D) or hours (H), X, the number of doses. Some doses were run more than once; the values are given in rising order. Some schedules carry Z or #; the key to these is not given. For survival time, the PubChem record calls one and a half times the control and up active, and a quarter to a half above the control has no call in these data; cut-offs in other NCI protocols can differ.

This assay concerns L1210 leukemia ip in BDF1 mice, survival T/C. The experiment in a line: NCI In Vivo Anticancer Drug Screen. Data for tumor model L1210 Leukemia (intraperitoneal) in B6D2F1 (BDF1) mice. Conditions: T/C endpoint: mean survival time, higher T/C = longer survival.
Setting [1] is: dose: 25.0 mg/kg/injection, schedule: Q01DX001 (ip), vehicle: saline.
Setting [2] is: dose: 80.0 mg/kg/injection, schedule: Q01DX001 (ip), vehicle: saline.
The mark [3] stands for this setting: dose: 100.0 mg/kg/injection, schedule: Q01DX001 (ip), vehicle: saline.
The mark [4] stands for this setting: dose: 200.0 mg/kg/injection, schedule: Q01DX001 (ip), vehicle: saline.
Where [5] appears, read: dose: 300.0 mg/kg/injection, schedule: Q01DX001 (ip), vehicle: other.
Where [6] appears, read: dose: 400.0 mg/kg/injection, schedule: Q01DX001 (ip), vehicle: saline.
[7] abbreviates: dose: 400.0 mg/kg/injection, schedule: Q01DX009 (ip), vehicle: saline with Tween-80.
The mark [8] stands for this setting: dose: 200.0 mg/kg/injection, schedule: Q04DX003 (ip), vehicle: saline.
Where [9] appears, read: dose: 400.0 mg/kg/injection, schedule: Q04DX003 (ip), vehicle: saline.
The mark [10] stands for this setting: dose: 100.0 mg/kg/injection, schedule: Q04DX002 (ip), vehicle: saline with Tween-80.
Where [11] appears, read: dose: 200.0 mg/kg/injection, schedule: Q04DX002 (ip), vehicle: saline with Tween-80.
Where [12] appears, read: dose: 400.0 mg/kg/injection, schedule: Q04DX002 (ip), vehicle: saline with Tween-80.
Where [13] appears, read: dose: 100.0 mg/kg/injection, schedule: Q04DX003 (ip), vehicle: Klucel (hydroxypropylcellulose) (HPC).
Where [14] appears, read: dose: 200.0 mg/kg/injection, schedule: Q04DX003 (ip), vehicle: Klucel (hydroxypropylcellulose) (HPC).
[15] abbreviates: dose: 400.0 mg/kg/injection, schedule: Q04DX003 (ip), vehicle: Klucel (hydroxypropylcellulose) (HPC).

Consider `O=C1C=C(C2OC(CO)C(O)C2O)C(=O)N1` (stereo unspecified), for which the T/C by setting is: (dose: 12.0 mg/kg/injection, schedule: Q01DX015 (ip), vehicle: saline) 127 % of control; (dose: 12.0 mg/kg/injection, schedule: Q01DX Z (ip), vehicle: saline) 128 % of control; (dose: 15.0 mg/kg/injection, schedule: Q01DX Z (ip), vehicle: saline) 128 % of control; under setting [1], 111 % of control. Moreover, the survivor count is 0 of 6, 1 of 6, 3 of 6 under setting [1]; 0 of 6 (dose: 25.0 mg/kg/injection, schedule: Q01DX Z (ip), vehicle: saline); 0 of 6 (dose: 35.0 mg/kg/injection, schedule: Q01DX001 (ip), vehicle: saline); 0 of 6 (dose: 35.0 mg/kg/injection, schedule: Q01DX Z (ip), vehicle: saline); 0 of 6 (dose: 50.0 mg/kg/injection, schedule: Q01DX001 (ip), vehicle: saline); 0 of 6 (dose: 55.0 mg/kg/injection, schedule: Q01DX001 (ip), vehicle: saline). Moreover, the survivor count runs as follows: (dose: 55.0 mg/kg/injection, schedule: Q01DX Z (ip), vehicle: saline) 0 of 6; under setting [2], 0 of 6; under setting [3], 1 of 6; under setting [4], 0 of 6.

With `CC(C)(C)NC(=O)Nc1nccs1`, the survivor count (dose: 400.0 mg/kg/injection, schedule: Q01DX009 (ip), vehicle: other) is recorded as 0 of 6.

For the molecule `CCOC(=O)C(CC)(OO)c1ccncc1Br` (stereo unspecified), the survivor count is, setting by setting: (dose: 200.0 mg/kg/injection, schedule: Q01DX001 (ip), vehicle: Klucel (hydroxypropylcellulose) (HPC)) 1 of 6; (dose: 400.0 mg/kg/injection, schedule: Q01DX001 (ip), vehicle: Klucel (hydroxypropylcellulose) (HPC)) 0 of 6.

As for `O=I(=O)c1ccccc1`, the survivor count is, setting by setting: (dose: 200.0 mg/kg/injection, schedule: Q04DX003 (ip), vehicle: saline with Tween-80) 3 of 6; (dose: 400.0 mg/kg/injection, schedule: Q04DX003 (ip), vehicle: saline with Tween-80) 0 of 6.

On to `Nc1nc(N)c2c(n1)SCC(c1ccc(Cl)cc1)=N2`, for which the survivor count under setting [5] is on record as 2 of 6.

`CCCCCCN(CCCCCC)C(F)(F)C(=O)Nc1ccc(S(=O)(=O)c2ccc(NC(=O)C(F)(F)N(CCCCCC)CCCCCC)cc2)cc1`: the survivor count is, setting by setting: under setting [3], 0 of 4; under setting [4], 0 of 4; under setting [6], 0 of 4.

For `Cc1ccc(C(=O)O)cc1S(=O)(=O)Cl`, the survivor count under setting [7] was 1 of 6.

For `NCCc1ccc(OCc2ccccc2)c(OCc2ccccc2)c1`, the survivor count runs as follows: (dose: 50.0 mg/kg/injection, schedule: Q01DX009 (ip), vehicle: saline) 4 of 6; (dose: 100.0 mg/kg/injection, schedule: Q04DX003 (ip), vehicle: saline) 6 of 6; under setting [8], 6 of 6; under setting [9], 6 of 6.

For the molecule `C1=Nc2c(ncnc2SCc2ccccc2)NN1`, the survivor count is 2 of 4 (dose: 200.0 mg/kg/injection, schedule: Q01DX001 (ip), vehicle: other) and 0 of 4 (dose: 400.0 mg/kg/injection, schedule: Q01DX001 (ip), vehicle: other).

`CCCCC(CC)(CCC)CCN` (stereo unspecified): the survivor count is, setting by setting: (dose: 40.0 mg/kg/injection, schedule: Q01DX001 (ip), vehicle: carboxymethylcellulose (CMC)) 4 of 4; (dose: 50.0 mg/kg/injection, schedule: Q01DX001 (ip), vehicle: carboxymethylcellulose (CMC)) 0 of 4; (dose: 80.0 mg/kg/injection, schedule: Q01DX001 (ip), vehicle: carboxymethylcellulose (CMC)) 1 of 4; (dose: 100.0 mg/kg/injection, schedule: Q01DX001 (ip), vehicle: carboxymethylcellulose (CMC)) 0 of 4; (dose: 200.0 mg/kg/injection, schedule: Q01DX001 (ip), vehicle: carboxymethylcellulose (CMC)) 0 of 4; (dose: 400.0 mg/kg/injection, schedule: Q01DX001 (ip), vehicle: carboxymethylcellulose (CMC)) 0 of 4.

Take `COc1cc(C(=O)NCC(=O)O)cc(OC)c1OC`: the survivor count (dose: 400.0 mg/kg/injection, schedule: Q01DX009 (ip), vehicle: saline) is reported as 6 of 6.

Consider `O=C1C=CC(=O)N1c1ccc2c(c1)OCO2`, for which the survivor count is reported as 0 of 3 (dose: 25.0 mg/kg/injection, schedule: Q04DX002 (ip), vehicle: saline with Tween-80); 0 of 3 (dose: 50.0 mg/kg/injection, schedule: Q04DX002 (ip), vehicle: saline with Tween-80); 0 of 3 under setting [10]; 0 of 3 under setting [11]; 0 of 3 under setting [12].

On to `CN1CCCC2C3=CC=C4CC(O)CCC4(C)C3CCC21C` (stereo unspecified), for which the survivor count (dose: 300.0 mg/kg/injection, schedule: Q01DX001 (ip), vehicle: carboxymethylcellulose (CMC)) is given as 0 of 6.

In the case of `CCN(CCCCO)CCc1c[nH]c2ccc(OC)cc12`, the survivor count (dose: 150.0 mg/kg/injection, schedule: Q04DX003 (ip), vehicle: saline) was 1 of 4; the survivor count (dose: 300.0 mg/kg/injection, schedule: Q01DX009 (ip), vehicle: saline) is 0 of 6; the survivor count (dose: 300.0 mg/kg/injection, schedule: Q04DX003 (ip), vehicle: saline) is 0 of 4.

On to `COc1ccc(C(=O)C(C)(CN(C)C)c2ccccc2)cc1` (stereo unspecified), for which the survivor count reads like this: under setting [8], 2 of 6; under setting [9], 0 of 6.

Turning to `c1cc[c]([Sn]([c]2ccccc2)([c]2ccccc2)[n]2cccc2)cc1`, the survivor count is given as 1 of 3 under setting [10]; 0 of 6 (dose: 200.0 mg/kg/injection, schedule: Q01DX009 (ip), vehicle: saline with Tween-80); 0 of 3 under setting [11]; 0 of 6 under setting [7]; 0 of 3 under setting [12].

Take `N#CCN1C(=O)c2ccccc2C1=O`: the survivor count is 0 of 6 (dose: 50.0 mg/kg/injection, schedule: Q01DX009 (ip), vehicle: Klucel (hydroxypropylcellulose) (HPC)); 0 of 6 under setting [13]; 2 of 6 (dose: 150.0 mg/kg/injection, schedule: Q01DX001 (ip), vehicle: other); 0 of 6 under setting [14]; 0 of 6 under setting [5]; 0 of 6 under setting [15].

Regarding `CNC(C)COc1ccccc1` (stereo unspecified), the survivor count (dose: 100.0 mg/kg/injection, schedule: Q01DX009 (ip), vehicle: saline) is 3 of 6.

`O=Cc1ccc([N+](=O)[O-])o1`: the survivor count is reported as 1 of 3 (dose: 50.0 mg/kg/injection, schedule: Q04DX002 (ip), vehicle: other); 2 of 6 under setting [2]; 0 of 6 under setting [3]; 2 of 3 (dose: 100.0 mg/kg/injection, schedule: Q04DX002 (ip), vehicle: other); 0 of 6 under setting [4]; 0 of 3 (dose: 200.0 mg/kg/injection, schedule: Q04DX002 (ip), vehicle: other). Moreover, the survivor count by setting is: under setting [6], 0 of 6; (dose: 400.0 mg/kg/injection, schedule: Q04DX002 (ip), vehicle: other) 0 of 3.

Consider `C[N+](C)(Cc1ccccc1)C1c2ccccc2-c2ccc(Br)cc21` (stereo unspecified), for which the survivor count by setting is: under setting [13], 0 of 6; under setting [14], 0 of 6; under setting [15], 0 of 6.

Values taken from PubChem BioAssay AID248 (DTP/NCI, 2004).
